Results as given in the supplement of paper PMC8104966.
“And” between values parts separate entries of the source, which are not always exact repeats. Equal values may be shown once. The list shows a part of the results. Repeats in this data set agree poorly, so a single value says little.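 U2OS cells carrying ACE2 were mixed with U2OS cells carrying full-length spike, and fusion was scored by imaging as the share of nuclei showing both cell types' fluorescent markers. A compound counts as an inhibitory hit when it is non-toxic and its fusion z-score falls below -3, meaning more than three standard deviations below the plate's DMSO wells.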

Test system: U2OS ACE2 x SARS-CoV-2 spike co-culture
Test: cell-cell fusion (fraction fused) z-score vs plate DMSO control; higher = more fusion
Details: 30 µM; 5 h; toxicity class: non-toxic, passed QC

Row | Compound | cell-cell fusion (z-score)
1 | CC1(C)S[C@@H]2[C@H](NC(=O)[C@H](N)c3ccccc3)C(=O)N2[C@H]1C(=O)O.O.O.O [Ampicillin Trihydrate] | inactive: 4.5
2 | CS(=O)(=O)c1ccc(C(=O)Nc2ccc(Cl)c(-c3ccccn3)c2)c(Cl)c1 [Vismodegib (GDC-0449)] | inactive: 1.84
3 | O.O=P(O)(O)C(O)(Cn1ccnc1)P(=O)(O)O [Zoledronic acid monohydrate] | inactive: 2.87
4 | NC(=O)N1c2ccccc2C=Cc2ccccc21 [Carbamazepine] | inactive: 1.86
5 | Cc1ccc(C(C)C)c(O)c1C(=O)O | inactive: 2
6 | CCN(CC)CCOC(=O)c1ccc(N)cc1 [Procaine] | inactive: 2.02
7 | O=C(CCCCCCCC(=O)NCCO)NCCO | inactive: 3.2
8 | O=C(O)[C@H]1NCCC[C@H]1C(=O)O (racemic) [(±)-cis-Piperidine-2,3-dicarboxylic acid] | inactive: 1.42
9 | NC1CCN(O)C1=O (racemic) | inactive: 1.53
10 | Cc1c[nH]c(-c2cnc(NCCNc3ccc(C#N)cn3)nc2-c2ccc(Cl)cc2Cl)n1.Cl | inactive: 2.71
11 | Cc1ccccc1C(OCCN(C)C)c1ccccc1.Cl (stereo not given) [Orphenadrine hydrochloride] | inactive: 3.41
12 | C=C[C@H]1C[N@@]2CC[C@H]1C[C@@H]2[C@H](O)c1ccnc2ccccc12 | inactive: 2.93
13 | CC(=O)O[C@H]1C[C@@H]2CC[C@@H]3[C@H](CC[C@@]4(C)[C@H]3C[C@H]([N+]3(C)CCCCC3)[C@@H]4OC(C)=O)[C@@]2(C)C[C@@H]1N1CCCCC1.[Br-] [Vecuronium bromide] | inactive: 3.38
14 | CC1(C)CCC[C@]2(C)[C@H]3CC(=O)O[C@]3(C)CC[C@@H]12 | inactive: 1.5
15 | C1CNCCN1.C[C@]12CC[C@@H]3c4ccc(OS(=O)(=O)O)cc4CC[C@H]3[C@@H]1CCC2=O [Estropipate] | inactive: 2.17
16 | Clc1ccc(CCC(Cn2ccnc2)Sc2c(Cl)cccc2Cl)cc1.O=[N+]([O-])O (stereo not given) [Butoconazole nitrate] | inactive: -1.53
17 | O.S=c1nc[nH]c2nc[nH]c12 [6-Mercaptopurine monohydrate] | inactive: 2.31
18 | CN(C)CCC=C1c2ccccc2C=Cc2ccccc21.Cl [Cyclobenzaprine hydrochloride] | inactive: 1.04
19 | S=c1ccss1 | inactive: 3.38
20 | Nc1nc(N)nc(NC2CC2)n1 | inactive: 1.28
21 | C[C@H](CCC(=O)O)[C@H]1CCC2C3C(CC[C@@]21C)[C@@]1(C)CC[C@@H](O)C[C@H]1C[C@H]3O (stereo not given in full) | inactive: 3.03
22 | Nc1nc2c(ncn2C2O[C@H](CO)[C@@H](O)[C@H]2O)c(=S)[nH]1 (stereo not given in full) | inactive: 2.42
23 | COc1nc(-c2ccc3c(c2)OCO3)n(-c2ccc(NC(=O)CSc3ccccc3)cc2)n1 [SecinH3] | inactive: 2.78
24 | CC(C)CCCC(C)N (stereo not given) | inactive: 3.72

Row | Compound | cell-cell fusion (z-score)
25 | CCCc1nn(C)c2c(=O)[nH]c(-c3cc(S(=O)(=O)N4CCN(C)CC4)ccc3OCC)nc12 [Sildenafil] | inactive: 1.37
26 | Cc1ccnc(NS(=O)(=O)c2ccc(N)cc2)n1 | inactive: 2.03
27 | COc1ccc(-c2coc3c4c(c(CC=C(C)C)c(OC)c3c2=O)OC(C)(C)C=C4)cc1OC | inactive: 2.44
28 | C[C@H]1O[C@@H](O[C@H]2[C@@H](O)C[C@H](O[C@H]3[C@@H](O)C[C@H](O[C@H]4CC[C@]5(C)C6CC[C@]7(C)[C@@H](C8=CC(=O)OC8)CC[C@]7(O)C6CC[C@@H]5C4)O[C@@H]3C)O[C@@H]2C)C[C@H](O)[C@@H]1O (stereo not given in full) | inactive: -0.208
29 | CN[C@H]1C[C@@H](N)[C@H](O)[C@@H](O[C@@H]2O[C@H](CO)[C@@H]3OC4(O[C@@H]3[C@@H]2O)O[C@H](C(N)CO)[C@H](O)[C@H](O)[C@H]4O)[C@@H]1O (stereo not given in full) | inactive: 1.64
30 | CNC(=O)[C@H]1O[C@@H](n2cnc3c(NCc4ccc(I)cc4)nc(Cl)nc32)[C@H](O)[C@@H]1O [Chloro-IB-MECA] | active: -11.5
31 | C=C1CC[C@H](O)C/C1=C/C=C1\CCC[C@]2(C)C([C@H](C)/C=C/[C@H](C)C(C)C)CC[C@@H]12 (stereo not given in full) | inactive: 1.65
32 | COc1cc([C@@H]2c3cc4c(cc3C(O[C@@H]3O[C@@H]5CO[C@@H](c6cccs6)OC5[C@H](O)[C@H]3O)C3COC(=O)[C@@H]32)OCO4)cc(OC)c1O (stereo not given in full) | inactive: 3.67
33 | CC1=NN=C(c2ccc(N)cc2)c2cc3c(cc2C1)OCO3.Cl | inactive: 8.95
34 | CN1CCc2ccccc2Cc2[nH]c3ccccc3c2CC1 | inactive: 3.03
35 | O=c1[nH]cnc2[nH]ncc12 | inactive: 1.39
36 | COc1cc2occ(-c3ccccc3)c(=O)c2c(OC)c1C | inactive: 1.87
37 | O=Cc1ccccc1O[C@@H]1O[C@H](CO)[C@H](O)[C@@H](O)[C@H]1O | inactive: 1.63
38 | Cc1ncc([N+](=O)[O-])n1CC(C)O (stereo not given) | inactive: 0.48
39 | CC(=O)NS(=O)(=O)c1ccc(N)cc1 | inactive: 1.92
40 | CC(=O)Nc1cccc(-n2c(=O)n(C3CC3)c(=O)c3c(Nc4ccc(I)cc4F)n(C)c(=O)c(C)c32)c1 | inactive: 1.17 and inactive: 1.24
41 | Cc1ccccc1C(OCCN(C)C)c1ccccc1.O=C(O)CC(O)(CC(=O)O)C(=O)O (stereo not given) [Orphenadrine Citrate] | inactive: 3.6
42 | O=C1NC(=O)c2c1c(-c1ccccc1)cc1[nH]c3ccc(O)cc3c21 | active: -5.27
43 | COc1ccccc1N1CCN(CCN(C(=O)c2ccc(F)cc2)c2ccccn2)CC1.Cl.Cl [p-MPPF dihydrochloride] | inactive: 2.4
44 | CCC(C)n1ncn(-c2ccc(N3CCN(c4ccc(OC[C@H]5CO[C@](Cn6cncn6)(c6ccc(Cl)cc6Cl)O5)cc4)CC3)cc2)c1=O (stereo not given in full) [Itraconazole (Sporanox)] | inactive: 1.34
45 | N[C@H](CO)C(=O)O [D-Serine] | inactive: 2.02
46 | CCC(CO)Nc1nc(NCc2ccccc2)c2ncn(C(C)C)c2n1 (stereo not given) [Roscovitine] | inactive: 2.55
47 | O=c1cc(-c2ccccc2)oc2cc(O)cc(O)c12 | inactive: 2.15
48 | CC(C)(Sc1ccc(CCN(CCCCC2CCCCC2)C(=O)NC2CCCCC2)cc1)C(=O)O | inactive: 3.29

Row | Compound | cell-cell fusion (z-score)
49 | CN(CCOc1ccc(CC2SC(=O)NC2=O)cc1)c1ccccn1.O=C(O)/C=C\C(=O)O (stereo not given) [Rosiglitazone maleate] | inactive: 2.52
50 | CCN1CCN(Cc2ccc(Nc3ncc(F)c(-c4cc(F)c5nc(C)n(C(C)C)c5c4)n3)nc2)CC1 [Abemaciclib] | inactive: 1.05
51 | O=C(CCCCCCC(=O)Nc1ccccc1)NO [Vorinostat] | inactive: 3.45
52 | CSc1nc(N)c2ncn([C@@H]3O[C@H](COP(=O)([O-])OP(=O)([O-])OP(=O)([O-])[O-])[C@H](O)C3O)c2n1.[Na+].[Na+].[Na+].[Na+] (stereo not given in full) [2-Methylthioadenosine triphosphate tetrasodium] | inactive: 1.24
53 | CC(C)(C)NCC(O)COc1cccc2c1CCCC2=O.Cl (stereo not given) | inactive: 1.06
54 | CC[N+]1(C)CCCC(OC(=O)C(O)(c2ccccc2)c2ccccc2)C1.[Br-] (stereo not given) | inactive: 3.12
55 | NS(=O)(=O)c1cc2c(cc1Cl)N=CNS2(=O)=O [Chlorothiazide] | inactive: 1.41
56 | NS(=O)(=O)c1cc2c(cc1Cl)N=CNS2(=O)=O | inactive: 1.04
57 | C1CNCCN1.COc1cc(C(O)CO)ccc1O.COc1cc(C(O)CO)ccc1O (stereo not given) [MHPG piperazine] | inactive: 1.68
58 | CN(C)C(=O)Oc1ccc[n+](C)c1.[Br-] [Pyridostigmine bromide] | inactive: 1.15
59 | COC(=O)c1c(C)cc(OC(=O)c2c(C)cc(O)c(C=O)c2O)c(C)c1O | inactive: 2.51
60 | C[n+]1ccccc1C=NO.[Cl-] | inactive: 1.82
61 | CCCCC[C@H](O)CC[C@@H]1[C@H]2Cc3cccc(OCC(=O)[O-])c3C[C@H]2C[C@H]1O.[Na+] [Treprostinil Sodium] | inactive: 1.42
62 | CC[C@H](C)C(=O)O[C@H]1C[C@@H](C)C=C2C=C[C@H](C)[C@H](CC[C@@H]3C[C@@H](O)CC(=O)O3)[C@H]21 [Lovastatin] | inactive: -1.33
63 | O=C(NOCC1CC1)c1cc(Br)c(F)c(F)c1Nc1ccc(I)cc1Cl | inactive: 2.1
64 | CC(=O)/C(=C\c1ccccc1)CC(=O)O | inactive: 2.4
65 | NC(Cc1c[nH]c2ccccc12)C(=O)O (stereo not given) | inactive: 1.75
66 | CCCCCN(CCCOC)C(=O)C(CCC(=O)O)NC(=O)c1ccc(Cl)c(Cl)c1 (stereo not given) [Loxiglumide] | inactive: 2.96
67 | COc1cc2c(cc1OC)[C@@H]1C(=O)c3ccc4c(c3O[C@@H]1CO2)C=CC(C)(C)O4 | inactive: 2.73
68 | CC1(CN2CCC(n3c(=O)[nH]c4ccccc43)CC2)OCc2ccccc2-n2cccc21.O=C(O)/C=C\C(=O)O (stereo not given) | inactive: -1.35
69 | O=c1cc[nH]c(=O)[nH]1 | inactive: 0.509
70 | N=C(N)Nc1ccc2[nH]c3c(c2c1)C[C@@]1(O)[C@H]2Cc4ccc(O)c5c4[C@@]1(CCN2CC1CC1)[C@H]3O5.O=C(O)C(F)(F)F.O=C(O)C(F)(F)F [Guanidinyl-naltrindole di-trifluoroacetate] | inactive: 0.269

Random excerpt: 5 records from the list.
Row | Compound | cell-cell fusion (z-score)
61 | CCCCC[C@H](O)CC[C@@H]1[C@H]2Cc3cccc(OCC(=O)[O-])c3C[C@H]2C[C@H]1O.[Na+] [Treprostinil Sodium] | inactive: 1.42
58 | CN(C)C(=O)Oc1ccc[n+](C)c1.[Br-] [Pyridostigmine bromide] | inactive: 1.15
62 | CC[C@H](C)C(=O)O[C@H]1C[C@@H](C)C=C2C=C[C@H](C)[C@H](CC[C@@H]3C[C@@H](O)CC(=O)O3)[C@H]21 [Lovastatin] | inactive: -1.33
70 | N=C(N)Nc1ccc2[nH]c3c(c2c1)C[C@@]1(O)[C@H]2Cc4ccc(O)c5c4[C@@]1(CCN2CC1CC1)[C@H]3O5.O=C(O)C(F)(F)F.O=C(O)C(F)(F)F [Guanidinyl-naltrindole di-trifluoroacetate] | inactive: 0.269
55 | NS(=O)(=O)c1cc2c(cc1Cl)N=CNS2(=O)=O [Chlorothiazide] | inactive: 1.41
